Results taken from PubChem BioAssay AID2685 (National Center for Advancing Translational Sciences (NCATS), 2010).
The other results are listed elsewhere or left out. Further columns of the screen follow, without active or inactive calls. Compounds called inactive in the main read-out are mostly missing here. The note in brackets gives the kind of curve behind each potency; many fits are weak.

Test: qHTS Assay for Lipid Storage Modulators in Drosophila S3 Cells;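 on cell number change: cells counted by Cell Tracker Red CMTPX staining in the red channel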
Conditions: BODIPY lipid droplet fluorescence, 18-24 h; for cell number change: measured here: cell count max response, cells fed with added oleic acid
Summary of the method: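 Laser-scanning cytometry quantifies lipid droplet accumulation (500–530 nm total intensity; droplet/cell object ratio) in oleic acid-fed (400 uM added) Drosophila S3 cells treated with a concentration series. 20 uM Triacsin C defined 100% inhibition.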

[1] = measured here: cell number channel AC50, cells fed with added oleic acid
[2] = measured here: lipid fluorescence (Fed channel) AC50, cells fed with added oleic acid

| Structure (SMILES) | cell number change [%] | AC50 [1] | AC50 [2] |
| --- | --- | --- | --- |
| CCn1c(C)c(C(C)=O)c(N2CCCCC2)nc1=S | -34.3 | 0.651 µM [falling, full curve] | 0.731 µM [falling, full curve] |
| CN1CCN(S(=O)(=O)c2cccc(C(=O)Nc3cccc(S(N)(=O)=O)c3)c2)CC1 | 21 | 0.13 µM [rising, full curve, poor fit] | – |
| NNC(=O)c1cc2cc(Oc3ccccc3)ccc2[nH]1 | 16.7 | – | 18.4 µM [falling, single point] |
| Nc1ccc(-c2sc(N)nc2-c2ccccc2)cc1 | -5.46 | – | 0.731 µM [rising, single point] |
| COc1ccccc1N(C)S(=O)(=O)c1ccc(C(=O)Nc2ccncc2)cc1 | 6.05 | 1.64 µM [rising, partial curve] | 1.84 µM [rising, partial curve] |
| Cc1nn(C)cc1CNC(=O)c1cccc(Cl)c1 | 47.5 | 18.4 µM [rising, single point] | – |
| CCN(CC)CCNc1nc2c(c(=O)[nH]c(=O)n2C)n1CCCc1ccccc1 | -17.7 | – | – |
| CC1CCN(c2ccc3nnc(CCC(=O)Nc4ccc(F)c(F)c4)n3n2)CC1 | 14.1 | – | – |
| O=C(NC(=S)Nc1ccc(N2CCOCC2)cc1)c1ccccc1 | -22.8 | – | 3.26 µM [falling, single point] |
| CC(=O)Nc1ccc(NC(=O)CSc2nc(C)nc3sc(C)c(C)c23)cc1 | -39.1 | 32.6 µM [falling, single point] | 2.31 µM [rising, partial curve, poor fit] |
| CCC(C)[C@H](NC(=O)NC1CCCc2ccccc21)C(=O)O (stereo partly specified) | -35.4 | 25.9 µM [falling, single point] | 0.00461 µM [falling, full curve, poor fit] |
| CCN(CC(=O)NCc1ccc(F)cc1)C(=O)Cc1ccc(OC)cc1 | 37.8 | 0.651 µM [rising, partial curve] | – |
| Cc1ccc(C(C)C)c(OCC(=O)OCC(=O)NC2CCS(=O)(=O)C2)c1 (stereo unspecified) | -4 | – | – |
| COc1ccc(Nc2nc(C)cc(C)n2)cc1Cl | 23 | – | – |
| O=C(NNC(=O)C1CCCO1)c1ccc(Cl)cc1 (stereo unspecified) | – | 0.0651 µM [rising, full curve, poor fit] | – |
| O=C(CCl)Nc1c[nH]c(=O)[nH]c1=O | 21.5 | – | – |
| CCOC(=O)/C(O)=C(\C#N)c1nc2ccccc2[nH]1 | 55.1 | – | 0.00411 µM [rising, full curve, poor fit] |
| COc1cc(/C=C/C(=O)O)cc(S(=O)(=O)Nc2ccccc2C(=O)NCCc2ccccc2)c1OC | – | – | 12.6 µM [rising, single point] |
| O=C(COC(=O)c1ccccc1Cl)NCCC1=CCCCC1 | -34.1 | – | 0.116 µM [falling, full curve] |
| CCOCCCn1c(=S)[nH]c2cc(C(=O)NCCc3ccc(OC)c(OC)c3)ccc2c1=O | 8.75 | – | 1.3 µM [falling, full curve] |

| Structure (SMILES) | cell number change [%] | AC50 [1] | AC50 [2] |
| --- | --- | --- | --- |
| CC(C)N1CCN(C(=O)c2ccc(NC(=O)c3ccc(Br)o3)cc2)CC1 | 19.4 | – | 16.4 µM [rising, single point] |
| Cc1cc(NC(=O)CSCC(=O)N2CCN(c3cccc(C)c3C)CC2)no1 | -42.9 | 29.1 µM [falling, single point] | 29.1 µM [falling, single point] |
| Cc1cc(F)ccc1S(=O)(=O)Nc1c(C)n(C)n(-c2ccccc2)c1=O | – | – | 23.1 µM [rising, partial curve, poor fit] |
| Cc1ccc(NC(=O)Nc2ccc([N+](=O)[O-])cc2)nc1 | 16.9 | 6.51 µM [rising, single point] | 3.26 µM [rising, partial curve] |
| CCNC(=S)N/N=C/c1cc(Br)cc(Br)c1OC | 29.7 | 0.291 µM [rising, full curve, poor fit] | 1.84 µM [rising, full curve] |
| COc1ccccc1NC(=O)c1ccccc1NC(=O)c1cccs1 | 9.24 | – | – |
| O=C(CN1CCN(S(=O)(=O)c2ccc(Br)cc2)CC1)N/N=C/c1ccccc1C(=O)O | -6.6 | 6.51 µM [falling, single point] | – |
| COC(=O)c1sccc1NC(=O)Nc1ccc(C(C)=O)cc1 | -20.2 | – | 29.1 µM [falling, single point] |
| CC1CCC(N(CCCN)Cc2ccco2)CC1C (stereo unspecified) | -26.2 | – | 0.291 µM [falling, full curve, poor fit] |
| C/C(=N\NC(=O)CNc1cccc(C(F)(F)F)c1)c1ccc(Br)cc1 | -56.9 | 8.2 µM [falling, partial curve] | 9.2 µM [falling, partial curve] |
| CS(=O)(=O)N(CC(=O)N1CCCC1)c1ccc(Cl)cc1Cl | 19.1 | – | – |
| CCCCCCCCCCCCCCCC[n+]1ccc(/C=N/O)cc1 | -78.5 | 20.6 µM [falling, partial curve] | 1.3 µM [falling, full curve] |
| Cc1nnc(NC(=O)c2ccc(-c3cccc(C(F)(F)F)c3)o2)s1 | -8.25 | – | 4.11 µM [rising, partial curve, poor fit] |
| CC1(C)C2CCC1(CS(=O)(=O)N1CCOCC1)C(=O)C2 (stereo unspecified) | -6.47 | – | 0.116 µM [falling, full curve, poor fit] |
| COc1ccc(/C=C2/Sc3ccc(C(=O)N4CCOCC4)cc3NC2=O)cc1OC | -9.06 | 0.116 µM [rising, full curve, poor fit] | – |
| CC(C)CC(=O)NC(=S)Nc1cccc(NC(=O)c2ccccc2Cl)c1 | 31.5 | 3.26 µM [rising, full curve, poor fit] | 1.64 µM [rising, partial curve] |
| Fc1ccc2cnc(-c3ccccc3)c(-c3cccc(C(F)(F)F)c3)c2c1 | -58.9 | 25.9 µM [falling, single point] | – |
| O=C(N/N=C/c1ccc([N+](=O)[O-])o1)c1ccccc1-n1cccc1 | 10.9 | – | 20.6 µM [falling, partial curve] |
| COc1cccc(/C=N/NC(=O)c2[nH]nc3c2CCc2ccccc2-3)c1O | -69.6 | 29.1 µM [falling, single point] | – |
| COC(=O)C(Cc1ccc(O)cc1)NC(=O)C12CC3CC(CC(C3)C1)C2 (stereo unspecified) | -54.2 | – | – |

| Structure (SMILES) | cell number change [%] | AC50 [1] | AC50 [2] |
| --- | --- | --- | --- |
| O=c1c2cc3c(=O)n(-c4ccccc4O)c(=O)c3cc2c(=O)n1-c1ccccc1O | -45.8 | 0.0259 µM [falling, full curve] | 23.1 µM [falling, partial curve, poor fit] |
| CCOc1cccc(-c2nc(C(N)=O)c3[nH]c(=O)n(-c4cccc(Cl)c4)c3n2)c1O | 15.5 | – | 7.31 µM [rising, partial curve, poor fit] |
| COc1cc(/C=N/NC(=O)c2ccc(CSc3nc4ccccc4[nH]3)cc2)cc(OC)c1OC | -62.8 | 29.1 µM [falling, partial curve, poor fit] | 29.1 µM [falling, partial curve, poor fit] |
| CCCCOc1ccc(S(=O)(=O)Nc2cccnc2)cc1 | -23.3 | – | – |
| Cc1cccc(NC(=O)c2ccc(S(=O)(=O)N3CC(C)OC(C)C3)cc2)n1 (stereo unspecified) | 19.1 | – | 29.1 µM [rising, single point] |
| O=C(O)CNC(=O)/C=C/c1c(Cl)cccc1Cl | -35.9 | 29.1 µM [falling, single point] | 29.1 µM [falling, single point] |
| Cc1ccc(CNC(=O)C2CCN(S(=O)(=O)N3CCCC3)CC2)cc1 | – | – | 29.1 µM [rising, single point] |
| O=C(O)CNC(=S)NCc1ccccc1 | 90.3 | – | – |
| COc1ccc(COn2c(=O)c(C)[n+]([O-])c3ccccc32)cc1OC | 2.5 | – | 0.259 µM [rising, full curve, poor fit] |
| O=S(=O)(Nc1cc(Cl)ccc1-n1cncn1)c1cc(Br)ccc1Br | -44.5 | 8.2 µM [falling, partial curve] | – |
| O=C(CN1C(=O)NC2(CCCC2)C1=O)Nc1ccc(S(=O)(=O)N2CCOCC2)cc1 | 37.6 | – | – |
| CC(C)Oc1ccc(NC(=O)CCC(=O)O)cc1 | 18.3 | 0.092 µM [rising, full curve, poor fit] | – |
| C=CCn1c(O)c(C2=c3ccccc3=NC2=O)c2ccccc21 | -79.8 | 25.9 µM [falling, partial curve] | 1.84 µM [falling, partial curve, poor fit] |
| CCN(CC)CCn1c2c(c(SCC(=O)Nc3cc(C)on3)nc1=O)CCCC2 | 75 | 6.51 µM [falling, single point] | – |
| COc1ccc(OC)c(S(=O)(=O)N2CCCC(C(=O)NCCN3CCOCC3)C2)c1 (stereo unspecified) | -0.855 | – | 0.0058 µM [falling, full curve, poor fit] |
| CN(C)/C=C(/C(=O)c1ccc(Cl)cc1Cl)S(=O)(=O)c1ccc(Cl)cc1 | -30.2 | 1.64 µM [falling, full curve, poor fit] | 1.46 µM [falling, partial curve] |
| O=C(Nc1ccc(N2CCN(C(=O)c3ccco3)CC2)cc1)c1ccccc1F | 2.38 | – | 0.0651 µM [rising, partial curve, poor fit] |
| O=C(c1ccc2c3c(cccc13)CC2)C1CCCN(C(=O)c2ccc(=O)[nH]c2)C1 (stereo unspecified) | -6.74 | – | 0.0116 µM [rising, full curve, poor fit] |

Some of the entries so far, as comma-separated lines:
Structure (SMILES),cell number change [%],AC50 [1],AC50 [2]
CC(C)Oc1ccc(NC(=O)CCC(=O)O)cc1,18.3,"0.092 µM [rising, full curve, poor fit]",–
C=CCn1c(O)c(C2=c3ccccc3=NC2=O)c2ccccc21,-79.8,"25.9 µM [falling, partial curve]","1.84 µM [falling, partial curve, poor fit]"
CCN(CC)CCn1c2c(c(SCC(=O)Nc3cc(C)on3)nc1=O)CCCC2,75,"6.51 µM [falling, single point]",–
